Measurements from patent US7815895B2, “Method for activating efferent sympathetic nerves innervating adipose tissues to improve obesity and symptoms associated therewith” (priority 2007, dated 2010).
For at least one compound, name, drawing or mass did not settle the structure.

Test system: db/db mice
Assay: TZD administration by gavage with hepatic vagotomy or sham operation
Type: in vivo
[1] = hepatic vagotomy 7 days prior to TZD

Cc1c(C)c2c(c(C)c1O)CCC(C)(COc1ccc(CC3SC(=O)NC3=O)cc1)O2 (stereo not shown) [troglitazone]
body weights (200 mg/kg twice a day for 2 days): did not alter | resting oxygen consumption (200 mg/kg twice a day for 2 days, sham operation): increase | UCP1 expression in BAT (2 days, sham operation): increase | UCP1 expression in WAT (2 days, sham operation): increase | increase in UCP1 expression in BAT [1]: reversed | increase in UCP1 expression in WAT [1]: reversed | increase in resting oxygen consumption [1]: reversed
